This note sets out measurements from PMC5651247.

These are yes or no findings as the source states them, for the method shown. For part of these data: Binding seen in cells or lysates may run through a third protein.

Holding throughout (details): remark: other sources report otherwise
The target in assay [1] is T1, Factor H-related-5 (FHR-5), serum-derived (human (endogenous in serum)), Q9BXR6.
T1 chain: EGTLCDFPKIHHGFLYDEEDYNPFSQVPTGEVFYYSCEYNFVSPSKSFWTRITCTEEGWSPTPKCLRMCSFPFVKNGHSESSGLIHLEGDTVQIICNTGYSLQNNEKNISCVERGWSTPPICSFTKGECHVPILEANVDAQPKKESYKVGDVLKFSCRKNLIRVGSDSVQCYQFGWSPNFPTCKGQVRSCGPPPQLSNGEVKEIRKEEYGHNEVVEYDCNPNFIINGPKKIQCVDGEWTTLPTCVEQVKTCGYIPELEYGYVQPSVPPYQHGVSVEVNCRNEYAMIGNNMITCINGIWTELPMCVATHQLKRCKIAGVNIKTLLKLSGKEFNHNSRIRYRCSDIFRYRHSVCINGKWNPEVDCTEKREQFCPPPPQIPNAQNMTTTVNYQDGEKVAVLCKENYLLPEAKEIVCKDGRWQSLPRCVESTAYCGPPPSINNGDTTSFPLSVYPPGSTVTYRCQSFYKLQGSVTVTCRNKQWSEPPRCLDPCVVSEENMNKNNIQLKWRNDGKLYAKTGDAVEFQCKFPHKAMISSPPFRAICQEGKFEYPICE
The experiment in a line: heparin affinity chromatography with ELISA of the fractions; 150 µL untreated serum (NHS or pooled CFHR3/CFHR1-deficient) in 10 mM NaPO4 pH 7.4 on a 1 mL HP Heparin column, linear gradient 0 to 2 M NaCl; dimers in the fractions measured by the dimer ELISAs. A general note: An ELISA detects its analyte on a solid surface through an enzyme-linked reagent.

Assay [2] deals with T1, Factor H-related-5 (FHR-5), …. Description: sucrose gradient centrifugation; pooled human serum (NHS or CFHR3/CFHR1-deficient), diluted 1:2 in PBS, on 5–32.9% (w/v) sucrose in PBS, 20 h at 160,000g, 24 fractions; FHRs immunoprecipitated from the fractions with anti-FHR-5.5 and seen by Western blot; IgM, IgG and albumin as size references. (In general: In western blotting, separated proteins are transferred to a membrane and probed.)

Assay [3] has the same target. The experiment in a line: co-IP; from 200 µL human serum of healthy donors with zero or two copies of CFHR1, without prior purification; anti-FH.02 (FHR-1), anti-FHR-2 or anti-FHR-5.1 on RM-19 Sepharose, PBS with 0.1% Tween-20, 0.1% BSA, 10 mM EDTA, o/n at 4°C; Western blot with anti-FHR-2.1 and anti-FHR-5.4.
Assay [4] deals with T2, Factor H-related-2 (FHR-2), serum-derived (human (endogenous in serum)), P36980.
T2 chain: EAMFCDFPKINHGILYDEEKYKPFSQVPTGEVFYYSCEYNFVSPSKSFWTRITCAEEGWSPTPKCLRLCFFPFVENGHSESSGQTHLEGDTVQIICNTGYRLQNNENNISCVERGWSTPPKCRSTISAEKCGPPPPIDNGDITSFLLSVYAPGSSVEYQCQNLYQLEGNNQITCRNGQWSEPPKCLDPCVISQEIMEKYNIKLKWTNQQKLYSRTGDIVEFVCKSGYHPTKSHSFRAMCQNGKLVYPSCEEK
Described as above.

For assay [5], the target named is T3, Factor H-related-1 (FHR-1), serum-derived (human (endogenous in serum)), Q03591.
T3 chain: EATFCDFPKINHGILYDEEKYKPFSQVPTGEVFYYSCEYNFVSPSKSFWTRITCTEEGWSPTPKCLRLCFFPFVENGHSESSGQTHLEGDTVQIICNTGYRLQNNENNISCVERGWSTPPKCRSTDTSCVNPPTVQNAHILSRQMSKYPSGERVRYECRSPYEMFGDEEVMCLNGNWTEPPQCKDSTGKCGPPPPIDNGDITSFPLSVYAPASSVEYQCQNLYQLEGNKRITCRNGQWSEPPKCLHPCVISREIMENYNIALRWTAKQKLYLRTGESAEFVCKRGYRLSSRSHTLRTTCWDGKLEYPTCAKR
The assay is described as above.

B1: Factor H-related-1 (FHR-1), serum-derived, Q03591 19-330 (protein)
chain: T3 chain
Turning to B1, the binding result in assay [1], in assay [2] and in assay [3] was “no binding” each time.

B2: Factor H-related-5 (FHR-5), serum-derived, Q9BXR6 19-569 (protein)
chain: T1 chain
As to B2, the binding result in assay [4] and in assay [5] was “no binding” each time.

B3: Factor H-related-2 (FHR-2), serum-derived, P36980 19-270 (protein)
chain: T2 chain
On to B3, for which, in assay [3], the binding result was “no binding”.
